Reference: the supplement of paper PMC6411743
± gives the standard deviation of the averaged measurements. This is a selection; strong and weak results do not stand in their true shares. Small differences around the control level are noise.

Amino acid sequences for entries named in this document (tags omitted). A change or cut given only in a name is not applied to a line headed by its entry.
UniProt P32019: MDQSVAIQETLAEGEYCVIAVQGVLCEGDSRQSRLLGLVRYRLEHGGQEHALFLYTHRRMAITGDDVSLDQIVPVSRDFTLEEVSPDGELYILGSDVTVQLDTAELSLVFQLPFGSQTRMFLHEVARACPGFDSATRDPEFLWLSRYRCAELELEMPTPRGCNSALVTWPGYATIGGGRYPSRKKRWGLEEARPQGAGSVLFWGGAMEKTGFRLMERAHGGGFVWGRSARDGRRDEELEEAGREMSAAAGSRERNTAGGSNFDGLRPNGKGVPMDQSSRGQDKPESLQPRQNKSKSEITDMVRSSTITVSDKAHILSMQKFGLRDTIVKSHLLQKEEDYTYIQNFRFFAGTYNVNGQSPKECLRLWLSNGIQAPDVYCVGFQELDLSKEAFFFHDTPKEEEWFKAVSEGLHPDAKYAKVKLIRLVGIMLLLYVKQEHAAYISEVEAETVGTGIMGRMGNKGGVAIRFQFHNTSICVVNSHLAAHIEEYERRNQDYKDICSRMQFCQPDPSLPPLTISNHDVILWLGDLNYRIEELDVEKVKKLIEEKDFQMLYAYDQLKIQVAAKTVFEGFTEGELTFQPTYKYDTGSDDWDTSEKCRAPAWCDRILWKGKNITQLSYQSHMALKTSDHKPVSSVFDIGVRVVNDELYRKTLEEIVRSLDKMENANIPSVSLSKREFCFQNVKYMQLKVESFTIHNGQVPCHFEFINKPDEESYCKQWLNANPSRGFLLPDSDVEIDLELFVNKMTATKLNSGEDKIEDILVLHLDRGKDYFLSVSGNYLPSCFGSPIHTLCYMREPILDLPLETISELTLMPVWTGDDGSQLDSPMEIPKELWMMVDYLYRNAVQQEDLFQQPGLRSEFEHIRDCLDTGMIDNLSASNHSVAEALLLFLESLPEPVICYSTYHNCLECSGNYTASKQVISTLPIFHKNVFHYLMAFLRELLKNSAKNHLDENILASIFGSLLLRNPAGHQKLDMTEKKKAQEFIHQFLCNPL
UniProt Q9UKU0: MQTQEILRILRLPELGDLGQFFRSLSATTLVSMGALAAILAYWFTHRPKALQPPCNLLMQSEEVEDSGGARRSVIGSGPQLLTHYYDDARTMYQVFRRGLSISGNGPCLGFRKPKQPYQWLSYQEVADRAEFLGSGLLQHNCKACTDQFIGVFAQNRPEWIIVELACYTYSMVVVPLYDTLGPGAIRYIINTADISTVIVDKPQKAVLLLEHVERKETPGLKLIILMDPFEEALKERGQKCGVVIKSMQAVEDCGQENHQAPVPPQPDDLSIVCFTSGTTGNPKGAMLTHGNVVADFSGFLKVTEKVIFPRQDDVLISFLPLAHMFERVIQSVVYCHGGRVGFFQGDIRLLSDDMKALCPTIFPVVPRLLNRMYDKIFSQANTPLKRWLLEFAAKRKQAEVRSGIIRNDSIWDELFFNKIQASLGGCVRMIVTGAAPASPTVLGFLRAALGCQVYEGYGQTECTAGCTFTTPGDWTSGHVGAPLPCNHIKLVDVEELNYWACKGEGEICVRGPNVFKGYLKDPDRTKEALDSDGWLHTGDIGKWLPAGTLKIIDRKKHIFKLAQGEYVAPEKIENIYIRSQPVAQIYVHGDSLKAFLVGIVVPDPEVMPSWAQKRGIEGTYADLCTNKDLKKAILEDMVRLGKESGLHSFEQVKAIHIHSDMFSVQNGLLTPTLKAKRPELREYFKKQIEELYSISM
UniProt Q08623: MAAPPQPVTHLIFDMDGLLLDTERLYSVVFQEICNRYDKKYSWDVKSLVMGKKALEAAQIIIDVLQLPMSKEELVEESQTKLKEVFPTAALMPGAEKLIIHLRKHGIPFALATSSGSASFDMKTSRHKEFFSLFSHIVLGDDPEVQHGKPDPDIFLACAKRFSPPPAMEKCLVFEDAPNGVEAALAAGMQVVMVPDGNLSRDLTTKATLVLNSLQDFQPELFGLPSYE
UniProt P11117: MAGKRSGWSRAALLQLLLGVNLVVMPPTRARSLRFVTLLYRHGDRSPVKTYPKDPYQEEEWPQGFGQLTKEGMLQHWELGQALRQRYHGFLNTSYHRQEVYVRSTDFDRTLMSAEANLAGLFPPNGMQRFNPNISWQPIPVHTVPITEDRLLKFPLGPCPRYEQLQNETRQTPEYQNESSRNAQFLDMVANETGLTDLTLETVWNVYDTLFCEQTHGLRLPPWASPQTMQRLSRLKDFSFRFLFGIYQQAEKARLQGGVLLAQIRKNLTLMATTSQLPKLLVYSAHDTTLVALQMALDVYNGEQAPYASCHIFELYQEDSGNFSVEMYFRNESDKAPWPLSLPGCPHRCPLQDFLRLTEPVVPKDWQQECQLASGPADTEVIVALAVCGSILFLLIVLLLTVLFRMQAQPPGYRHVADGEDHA
UniProt Q9NUJ3: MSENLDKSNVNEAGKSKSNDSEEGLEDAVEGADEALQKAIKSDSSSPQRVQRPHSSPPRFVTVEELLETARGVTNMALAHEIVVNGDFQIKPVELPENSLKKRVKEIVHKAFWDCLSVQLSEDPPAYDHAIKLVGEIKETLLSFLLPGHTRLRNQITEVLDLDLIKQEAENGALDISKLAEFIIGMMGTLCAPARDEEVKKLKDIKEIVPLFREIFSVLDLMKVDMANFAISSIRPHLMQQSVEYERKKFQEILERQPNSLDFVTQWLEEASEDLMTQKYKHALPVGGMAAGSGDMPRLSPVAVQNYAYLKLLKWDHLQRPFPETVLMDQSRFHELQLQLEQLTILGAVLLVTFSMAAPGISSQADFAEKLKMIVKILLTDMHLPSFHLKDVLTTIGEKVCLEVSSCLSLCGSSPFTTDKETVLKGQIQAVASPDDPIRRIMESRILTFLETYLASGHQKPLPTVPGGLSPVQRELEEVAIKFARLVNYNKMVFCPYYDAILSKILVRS
UniProt Q9BZF9: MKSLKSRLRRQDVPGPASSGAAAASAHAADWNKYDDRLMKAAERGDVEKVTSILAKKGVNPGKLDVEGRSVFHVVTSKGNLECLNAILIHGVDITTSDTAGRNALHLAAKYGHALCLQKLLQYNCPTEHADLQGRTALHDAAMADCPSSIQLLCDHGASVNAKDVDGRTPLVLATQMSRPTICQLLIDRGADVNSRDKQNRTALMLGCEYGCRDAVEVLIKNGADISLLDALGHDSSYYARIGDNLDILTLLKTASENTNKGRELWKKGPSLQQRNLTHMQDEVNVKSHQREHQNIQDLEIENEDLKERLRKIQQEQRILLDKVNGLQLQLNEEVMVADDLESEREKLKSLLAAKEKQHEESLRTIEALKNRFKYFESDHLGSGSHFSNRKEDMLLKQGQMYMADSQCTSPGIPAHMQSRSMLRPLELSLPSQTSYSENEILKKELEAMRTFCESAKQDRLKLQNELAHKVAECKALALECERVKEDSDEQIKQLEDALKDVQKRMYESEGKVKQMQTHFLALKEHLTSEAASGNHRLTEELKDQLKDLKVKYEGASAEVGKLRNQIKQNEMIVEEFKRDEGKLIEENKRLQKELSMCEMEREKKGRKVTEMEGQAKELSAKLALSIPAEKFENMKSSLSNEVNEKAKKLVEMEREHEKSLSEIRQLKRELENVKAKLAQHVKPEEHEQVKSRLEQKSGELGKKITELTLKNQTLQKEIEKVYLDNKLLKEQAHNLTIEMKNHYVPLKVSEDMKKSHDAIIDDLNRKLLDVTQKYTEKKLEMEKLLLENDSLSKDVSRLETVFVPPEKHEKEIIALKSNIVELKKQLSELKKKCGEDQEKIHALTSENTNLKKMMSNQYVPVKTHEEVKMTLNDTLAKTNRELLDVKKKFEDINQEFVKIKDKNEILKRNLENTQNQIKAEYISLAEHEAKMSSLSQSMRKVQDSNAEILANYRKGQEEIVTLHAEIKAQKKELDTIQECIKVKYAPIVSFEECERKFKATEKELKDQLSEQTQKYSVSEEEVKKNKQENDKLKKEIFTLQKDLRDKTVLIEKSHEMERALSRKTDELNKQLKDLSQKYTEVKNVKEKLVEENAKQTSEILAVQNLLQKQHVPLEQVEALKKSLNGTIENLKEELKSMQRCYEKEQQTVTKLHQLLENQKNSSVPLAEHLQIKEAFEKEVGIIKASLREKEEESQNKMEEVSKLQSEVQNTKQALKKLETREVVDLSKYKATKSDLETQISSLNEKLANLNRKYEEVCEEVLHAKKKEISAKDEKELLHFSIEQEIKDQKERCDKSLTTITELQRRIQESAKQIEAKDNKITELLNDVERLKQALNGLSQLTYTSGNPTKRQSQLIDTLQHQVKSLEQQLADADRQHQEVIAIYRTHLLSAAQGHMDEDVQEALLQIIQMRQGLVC
UniProt Q15154: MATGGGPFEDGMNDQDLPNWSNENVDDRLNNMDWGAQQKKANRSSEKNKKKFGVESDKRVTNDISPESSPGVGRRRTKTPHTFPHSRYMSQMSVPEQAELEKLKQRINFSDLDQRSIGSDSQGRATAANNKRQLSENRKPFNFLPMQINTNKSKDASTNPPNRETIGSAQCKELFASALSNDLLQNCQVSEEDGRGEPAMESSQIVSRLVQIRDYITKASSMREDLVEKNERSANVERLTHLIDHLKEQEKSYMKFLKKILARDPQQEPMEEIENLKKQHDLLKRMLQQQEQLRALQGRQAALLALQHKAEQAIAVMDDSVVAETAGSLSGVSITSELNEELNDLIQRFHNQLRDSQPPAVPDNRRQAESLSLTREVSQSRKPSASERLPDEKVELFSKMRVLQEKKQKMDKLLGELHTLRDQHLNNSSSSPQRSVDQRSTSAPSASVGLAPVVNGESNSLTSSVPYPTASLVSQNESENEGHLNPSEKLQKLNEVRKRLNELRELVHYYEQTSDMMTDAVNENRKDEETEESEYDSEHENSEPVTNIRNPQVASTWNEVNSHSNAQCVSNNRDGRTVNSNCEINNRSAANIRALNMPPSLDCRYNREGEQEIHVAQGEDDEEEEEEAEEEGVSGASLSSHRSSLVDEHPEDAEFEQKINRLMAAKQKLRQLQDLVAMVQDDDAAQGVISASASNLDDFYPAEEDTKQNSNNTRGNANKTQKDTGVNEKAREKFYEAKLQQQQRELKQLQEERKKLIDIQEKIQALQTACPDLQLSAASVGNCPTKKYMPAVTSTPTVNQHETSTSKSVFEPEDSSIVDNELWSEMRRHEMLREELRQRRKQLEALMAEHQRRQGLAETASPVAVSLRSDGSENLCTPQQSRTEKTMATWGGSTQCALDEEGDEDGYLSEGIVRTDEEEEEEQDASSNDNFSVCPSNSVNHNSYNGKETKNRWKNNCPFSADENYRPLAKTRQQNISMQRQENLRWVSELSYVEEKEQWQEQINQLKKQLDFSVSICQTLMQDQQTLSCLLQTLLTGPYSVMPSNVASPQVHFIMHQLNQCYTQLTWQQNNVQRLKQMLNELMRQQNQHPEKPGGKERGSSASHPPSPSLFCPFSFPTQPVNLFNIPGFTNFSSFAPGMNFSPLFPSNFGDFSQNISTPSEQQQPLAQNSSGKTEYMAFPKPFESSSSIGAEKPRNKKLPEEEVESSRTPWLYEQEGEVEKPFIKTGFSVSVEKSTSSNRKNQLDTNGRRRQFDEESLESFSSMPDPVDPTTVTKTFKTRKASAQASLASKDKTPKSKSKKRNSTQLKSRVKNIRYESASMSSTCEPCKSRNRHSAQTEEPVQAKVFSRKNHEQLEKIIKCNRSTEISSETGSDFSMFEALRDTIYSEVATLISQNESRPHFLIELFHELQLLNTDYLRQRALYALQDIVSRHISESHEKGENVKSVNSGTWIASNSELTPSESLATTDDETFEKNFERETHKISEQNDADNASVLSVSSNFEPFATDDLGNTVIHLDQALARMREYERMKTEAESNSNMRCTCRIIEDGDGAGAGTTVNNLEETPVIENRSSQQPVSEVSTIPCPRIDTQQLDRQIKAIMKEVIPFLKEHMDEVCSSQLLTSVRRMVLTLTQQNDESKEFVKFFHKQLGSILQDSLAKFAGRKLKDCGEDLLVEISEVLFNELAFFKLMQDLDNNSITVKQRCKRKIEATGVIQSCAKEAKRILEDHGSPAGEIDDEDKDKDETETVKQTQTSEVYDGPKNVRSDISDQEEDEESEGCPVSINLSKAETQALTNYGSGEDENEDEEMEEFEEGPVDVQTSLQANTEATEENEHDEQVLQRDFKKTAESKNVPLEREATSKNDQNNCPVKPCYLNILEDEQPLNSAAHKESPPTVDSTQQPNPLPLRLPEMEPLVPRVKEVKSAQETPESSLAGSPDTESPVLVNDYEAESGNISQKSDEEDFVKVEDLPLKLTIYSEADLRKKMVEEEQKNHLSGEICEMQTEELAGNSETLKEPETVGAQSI
UniProt P06748, whole entry: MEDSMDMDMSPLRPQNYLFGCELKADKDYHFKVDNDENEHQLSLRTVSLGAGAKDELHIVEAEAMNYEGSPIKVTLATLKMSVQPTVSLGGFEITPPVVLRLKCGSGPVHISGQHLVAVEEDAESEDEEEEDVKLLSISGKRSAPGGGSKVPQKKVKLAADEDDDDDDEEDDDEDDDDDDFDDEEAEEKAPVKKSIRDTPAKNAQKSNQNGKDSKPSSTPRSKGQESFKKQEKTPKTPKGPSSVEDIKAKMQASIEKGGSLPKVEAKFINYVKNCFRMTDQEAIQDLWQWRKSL

Compound: Nc1ncnc2c1ncn2[C@@H]1O[C@H](COP(=O)(O)OP(=O)(O)NP(=O)(O)O)[C@@H](O)[C@H]1O [adenylyl imidodiphosphate]
Assay: NP40-soluble protein abundance relative to vehicle (solubility fold change) (ratio); higher = more soluble protein in presence of AMP-PNP
Conditions: concentration: 0.5mM
Method in brief: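 Eight concentrations, 0.1 to 10 mM, were tested on Jurkat crude lysate for 10 min at room temperature and then 3 min at 37 °C, in three independent experiments. The lysate was solubilised with 0.8% NP40 and benzonase, ultracentrifuged, and the supernatant TMT-labelled for LC-MS/MS. Each value is the fold change against the detergent-processed vehicle in its own replicate, from vsn-normalised intensities.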

Target	NP40-soluble protein abundance
F8WCF6 and related entries (UniProt P59998)	0.985 ± 0.1
F5H212 and related entries (UniProt P15822)	1.01 ± 0.08
E7EPM6 and related entries (UniProt P33121)	0.948 ± 0.053
F5GXG6 and related entries (UniProt Q13889)	1.03 ± 0.064
E7EXA6 and related entries (UniProt Q8WVB6)	0.989 ± 0.023
F6T1Q0 and related entries (UniProt Q6L8Q7)	0.957 ± 0.079
E7ETU7 and related entries (UniProt P09001)	0.973 ± 0.1
E7ESY0 and related entries (UniProt P32019)	0.969 ± 0.089
E9PBG7 and related entries (UniProt Q13557)	0.95 ± 0.023
F8VU11 and related entries (UniProt Q6NWY9)	0.979 ± 0.033
E7ERD7 and related entries (UniProt Q9UKU0)	1.01 ± 0.018
F5GZS6 and related entries (UniProt P08195)	1.01 ± 0.031
E7EVH9 and related entries (UniProt Q08623)	0.988 ± 0.018
E9PQY3 and related entries (UniProt P11117)	0.983 ± 0.037
E9PJ55 and related entries (UniProt Q9NUJ3)	1.02 ± 0.067
F5H2B9 and related entries (UniProt Q9BZF9)	0.974 ± 0.016
E7ETA6 and related entries (UniProt Q15154)	1.01 ± 0.066
E5RI98 and related entries (UniProt P06748)	0.998 ± 0.041
E7EQY1 and related entries (UniProt Q96C01)	1.06 ± 0.12

A second format for part of the listing above.
Target | NP40-soluble protein abundance
F5GXG6 and related entries (UniProt Q13889) | 1.03 ± 0.064
F5H2B9 and related entries (UniProt Q9BZF9) | 0.974 ± 0.016
